{"source": "PubChem BioAssay AID652243 (Drosophila RNAi Screening Center, 2013)", "assay": "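Fly regulators of androgen-dependent reporter output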 (primary screen)", "cell system": "Drosophila S2R+ cells", "reagents": "long dsRNA against Drosophila genes", "duration": "72 h (48 h, then 24 h hormone)", "treatment": "synthetic androgen R1881 at 10 nM for 24 h", "read-out": "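Per-well raw luminescence of the androgen-driven firefly reporter and of the Renilla control, two replicates each, without normalisation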", "direction": "firefly reporter light: higher = more light from androgen-responsive reporter; Renilla control light: higher = more constitutive control signal (cell number, transfection)", "hit rule": "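Hit when the log firefly-to-Renilla ratio dropped or increased by a fixed fold versus the mean of GFP or LacZ controls across duplicate plates; lowering cut given as 1.5 and as 3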", "calls": "active = hit: reporter lowered or raised; inactive = no hit", "note": "In all, the deposit lists about 24,000 reagents; shown is an unselected part of those with a known target gene and a result. Over the whole deposit, 246 (1%) are marked active. 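Plates not normalised; calls are printed but the firefly/Renilla ratio behind them is not deposited; fold cut for lowering reported inconsistently.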 The raw values are shown without normalisation. Unmarked entries are inactive. Names joined by + are all predicted targets of the reagent. Not stated in the record: the amount of reagent."}
The opening 3 records, to show the layout:
{"target gene": "MstProx + Mst84Da", "dsRNA": "DRSC12597", "firefly reporter light, replicate 1": 70875, "firefly reporter light, replicate 2": 66223, "Renilla control light, replicate 1": 1.49e6, "Renilla control light, replicate 2": 1.75e6}
{"target gene": "CG18420", "dsRNA": "DRSC01954", "firefly reporter light, replicate 1": 1.93e5, "firefly reporter light, replicate 2": 2.64e5, "Renilla control light, replicate 1": 2.23e6, "Renilla control light, replicate 2": 2.83e6}
{"target gene": "trv", "dsRNA": "DRSC13846", "firefly reporter light, replicate 1": 3.38e5, "firefly reporter light, replicate 2": 4.57e5, "Renilla control light, replicate 1": 5.76e5, "Renilla control light, replicate 2": 9.11e5}

Results, from the start:
{"target gene": "MstProx + Mst84Da", "dsRNA": "DRSC12597", "firefly reporter light, replicate 1": 70875, "firefly reporter light, replicate 2": 66223, "Renilla control light, replicate 1": 1.49e6, "Renilla control light, replicate 2": 1.75e6}
{"target gene": "CG18420", "dsRNA": "DRSC01954", "firefly reporter light, replicate 1": 1.93e5, "firefly reporter light, replicate 2": 2.64e5, "Renilla control light, replicate 1": 2.23e6, "Renilla control light, replicate 2": 2.83e6}
{"target gene": "trv", "dsRNA": "DRSC13846", "firefly reporter light, replicate 1": 3.38e5, "firefly reporter light, replicate 2": 4.57e5, "Renilla control light, replicate 1": 5.76e5, "Renilla control light, replicate 2": 9.11e5}
{"target gene": "trv", "dsRNA": "DRSC14560", "firefly reporter light, replicate 1": 1.96e5, "firefly reporter light, replicate 2": 1.54e5, "Renilla control light, replicate 1": 3.36e6, "Renilla control light, replicate 2": 2.92e6}
{"target gene": "trv", "dsRNA": "DRSC14561", "firefly reporter light, replicate 1": 5.21e5, "firefly reporter light, replicate 2": 5.87e5, "Renilla control light, replicate 1": 3.59e6, "Renilla control light, replicate 2": 4.09e6}
{"target gene": "trv", "dsRNA": "DRSC25527", "firefly reporter light, replicate 1": 9.82e5, "firefly reporter light, replicate 2": 1.21e6, "Renilla control light, replicate 1": 1.06e6, "Renilla control light, replicate 2": 9.18e5}
{"target gene": "trv", "dsRNA": "DRSC25789", "firefly reporter light, replicate 1": 3.94e5, "firefly reporter light, replicate 2": 2.91e5, "Renilla control light, replicate 1": 8.00e5, "Renilla control light, replicate 2": 6.21e5}
{"target gene": "Obp56g", "dsRNA": "DRSC06432", "firefly reporter light, replicate 1": 86770, "firefly reporter light, replicate 2": 1.11e5, "Renilla control light, replicate 1": 1.22e6, "Renilla control light, replicate 2": 1.27e6}
{"target gene": "sbm", "dsRNA": "DRSC20185", "firefly reporter light, replicate 1": 4.37e5, "firefly reporter light, replicate 2": 4.35e5, "Renilla control light, replicate 1": 2.56e6, "Renilla control light, replicate 2": 2.25e6}
{"target gene": "XRCC1", "dsRNA": "DRSC18729", "firefly reporter light, replicate 1": 57549, "firefly reporter light, replicate 2": 69300, "Renilla control light, replicate 1": 6.07e5, "Renilla control light, replicate 2": 8.27e5}
{"target gene": "XRCC1", "dsRNA": "DRSC28480", "firefly reporter light, replicate 1": 4.38e5, "firefly reporter light, replicate 2": 4.87e5, "Renilla control light, replicate 1": 1.44e6, "Renilla control light, replicate 2": 1.75e6}
{"target gene": "CG8531", "dsRNA": "DRSC07209", "firefly reporter light, replicate 1": 1.25e6, "firefly reporter light, replicate 2": 1.03e6, "Renilla control light, replicate 1": 2.39e6, "Renilla control light, replicate 2": 2.54e6}
{"target gene": "Dlip1", "dsRNA": "DRSC18460", "firefly reporter light, replicate 1": 2.50e5, "firefly reporter light, replicate 2": 3.68e5, "Renilla control light, replicate 1": 1.82e6, "Renilla control light, replicate 2": 2.51e6}
{"target gene": "bdg", "dsRNA": "DRSC07136", "firefly reporter light, replicate 1": 1.59e6, "firefly reporter light, replicate 2": 1.10e6, "Renilla control light, replicate 1": 2.62e6, "Renilla control light, replicate 2": 1.77e6}
{"target gene": "CG9500", "dsRNA": "DRSC03237", "firefly reporter light, replicate 1": 1.02e5, "firefly reporter light, replicate 2": 1.77e5, "Renilla control light, replicate 1": 1.62e6, "Renilla control light, replicate 2": 1.42e6}
{"target gene": "alph", "dsRNA": "DRSC15398", "firefly reporter light, replicate 1": 1.33e5, "firefly reporter light, replicate 2": 91409, "Renilla control light, replicate 1": 1.04e6, "Renilla control light, replicate 2": 8.73e5}
{"target gene": "alph", "dsRNA": "DRSC28570", "firefly reporter light, replicate 1": 3.88e5, "firefly reporter light, replicate 2": 6.92e5, "Renilla control light, replicate 1": 1.07e6, "Renilla control light, replicate 2": 1.38e6}
{"target gene": "noc", "dsRNA": "DRSC24997", "firefly reporter light, replicate 1": 3.88e5, "firefly reporter light, replicate 2": 4.37e5, "Renilla control light, replicate 1": 4.54e5, "Renilla control light, replicate 2": 5.64e5}
{"target gene": "mRpL10", "dsRNA": "DRSC00312", "firefly reporter light, replicate 1": 5.77e5, "firefly reporter light, replicate 2": 6.23e5, "Renilla control light, replicate 1": 3.34e6, "Renilla control light, replicate 2": 1.48e6}
{"target gene": "Mob4", "dsRNA": "DRSC04993", "firefly reporter light, replicate 1": 7.00e5, "firefly reporter light, replicate 2": 7.43e5, "Renilla control light, replicate 1": 1.39e6, "Renilla control light, replicate 2": 1.31e6}
{"target gene": "Mob4", "dsRNA": "DRSC29567", "firefly reporter light, replicate 1": 3.78e5, "firefly reporter light, replicate 2": 4.11e5, "Renilla control light, replicate 1": 8.52e5, "Renilla control light, replicate 2": 8.52e5}
{"target gene": "pita", "dsRNA": "DRSC04006", "firefly reporter light, replicate 1": 1.63e5, "firefly reporter light, replicate 2": 2.09e5, "Renilla control light, replicate 1": 2.94e5, "Renilla control light, replicate 2": 4.12e5}
{"target gene": "pita", "dsRNA": "DRSC04435", "firefly reporter light, replicate 1": 4.81e5, "firefly reporter light, replicate 2": 5.26e5, "Renilla control light, replicate 1": 1.33e6, "Renilla control light, replicate 2": 1.44e6}
{"target gene": "CG3546", "dsRNA": "DRSC18308", "firefly reporter light, replicate 1": 1.20e5, "firefly reporter light, replicate 2": 89576, "Renilla control light, replicate 1": 4.22e6, "Renilla control light, replicate 2": 3.37e6}
{"target gene": "CG3546", "dsRNA": "DRSC23647", "firefly reporter light, replicate 1": 8.37e5, "firefly reporter light, replicate 2": 9.49e5, "Renilla control light, replicate 1": 1.16e6, "Renilla control light, replicate 2": 1.33e6}
{"target gene": "CG4660", "dsRNA": "DRSC18378", "firefly reporter light, replicate 1": 3.33e5, "firefly reporter light, replicate 2": 4.11e5, "Renilla control light, replicate 1": 2.31e6, "Renilla control light, replicate 2": 2.37e6}
{"target gene": "FoxL1", "dsRNA": "DRSC08717", "firefly reporter light, replicate 1": 82839, "firefly reporter light, replicate 2": 1.32e5, "Renilla control light, replicate 1": 1.24e6, "Renilla control light, replicate 2": 1.70e6}
{"target gene": "FoxL1", "dsRNA": "DRSC25265", "firefly reporter light, replicate 1": 5.83e5, "firefly reporter light, replicate 2": 2.95e5, "Renilla control light, replicate 1": 6.36e5, "Renilla control light, replicate 2": 5.51e5}
